The target in the assay is HDAC4 (endogenous, mouse brain) (mouse (endogenous in mouse brain)) (UniProt Q6NZM9). The experiment in a line: co-IP; whole brain lysates of 8-wk-old mice in HEPES buffer, protein-G Dynabeads overnight at 4°C; immunoprecipitation with HDAC4 (DM-15 or H-92) or HDAC5 (ab56929) antibodies, HTT detected with MAB2166 or MW1.

Protein sequences, listed by entry. Tags and fused reporters are not part of them. Lines headed by an entry give the natural chain unless they say otherwise; changes in a name come on top.
UniProt Q6NZM9: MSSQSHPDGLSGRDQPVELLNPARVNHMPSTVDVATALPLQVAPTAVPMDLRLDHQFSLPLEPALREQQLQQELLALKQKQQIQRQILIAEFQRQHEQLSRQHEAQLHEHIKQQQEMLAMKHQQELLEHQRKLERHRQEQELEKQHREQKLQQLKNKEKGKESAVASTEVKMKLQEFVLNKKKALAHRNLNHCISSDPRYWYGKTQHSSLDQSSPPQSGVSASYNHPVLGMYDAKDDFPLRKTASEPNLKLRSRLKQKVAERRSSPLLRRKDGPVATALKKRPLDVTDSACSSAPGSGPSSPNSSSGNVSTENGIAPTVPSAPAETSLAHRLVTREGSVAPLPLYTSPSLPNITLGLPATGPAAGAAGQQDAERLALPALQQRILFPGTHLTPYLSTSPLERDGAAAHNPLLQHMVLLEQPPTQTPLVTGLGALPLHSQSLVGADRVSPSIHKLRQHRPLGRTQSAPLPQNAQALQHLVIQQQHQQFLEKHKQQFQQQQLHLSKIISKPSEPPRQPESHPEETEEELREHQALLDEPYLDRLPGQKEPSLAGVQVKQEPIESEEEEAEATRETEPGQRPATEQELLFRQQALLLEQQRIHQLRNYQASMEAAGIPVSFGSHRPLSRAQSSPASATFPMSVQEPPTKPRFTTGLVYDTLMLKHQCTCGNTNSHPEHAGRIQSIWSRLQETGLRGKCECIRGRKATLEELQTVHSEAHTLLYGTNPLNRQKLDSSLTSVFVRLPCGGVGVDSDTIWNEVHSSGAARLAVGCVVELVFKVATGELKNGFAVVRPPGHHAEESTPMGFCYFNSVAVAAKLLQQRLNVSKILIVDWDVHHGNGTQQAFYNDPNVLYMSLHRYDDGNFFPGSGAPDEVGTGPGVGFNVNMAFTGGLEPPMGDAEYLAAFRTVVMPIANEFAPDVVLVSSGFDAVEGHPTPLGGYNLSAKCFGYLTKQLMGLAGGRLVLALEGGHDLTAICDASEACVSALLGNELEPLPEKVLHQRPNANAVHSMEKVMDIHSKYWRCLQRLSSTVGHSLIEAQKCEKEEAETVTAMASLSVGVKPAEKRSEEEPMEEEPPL
UniProt P42859: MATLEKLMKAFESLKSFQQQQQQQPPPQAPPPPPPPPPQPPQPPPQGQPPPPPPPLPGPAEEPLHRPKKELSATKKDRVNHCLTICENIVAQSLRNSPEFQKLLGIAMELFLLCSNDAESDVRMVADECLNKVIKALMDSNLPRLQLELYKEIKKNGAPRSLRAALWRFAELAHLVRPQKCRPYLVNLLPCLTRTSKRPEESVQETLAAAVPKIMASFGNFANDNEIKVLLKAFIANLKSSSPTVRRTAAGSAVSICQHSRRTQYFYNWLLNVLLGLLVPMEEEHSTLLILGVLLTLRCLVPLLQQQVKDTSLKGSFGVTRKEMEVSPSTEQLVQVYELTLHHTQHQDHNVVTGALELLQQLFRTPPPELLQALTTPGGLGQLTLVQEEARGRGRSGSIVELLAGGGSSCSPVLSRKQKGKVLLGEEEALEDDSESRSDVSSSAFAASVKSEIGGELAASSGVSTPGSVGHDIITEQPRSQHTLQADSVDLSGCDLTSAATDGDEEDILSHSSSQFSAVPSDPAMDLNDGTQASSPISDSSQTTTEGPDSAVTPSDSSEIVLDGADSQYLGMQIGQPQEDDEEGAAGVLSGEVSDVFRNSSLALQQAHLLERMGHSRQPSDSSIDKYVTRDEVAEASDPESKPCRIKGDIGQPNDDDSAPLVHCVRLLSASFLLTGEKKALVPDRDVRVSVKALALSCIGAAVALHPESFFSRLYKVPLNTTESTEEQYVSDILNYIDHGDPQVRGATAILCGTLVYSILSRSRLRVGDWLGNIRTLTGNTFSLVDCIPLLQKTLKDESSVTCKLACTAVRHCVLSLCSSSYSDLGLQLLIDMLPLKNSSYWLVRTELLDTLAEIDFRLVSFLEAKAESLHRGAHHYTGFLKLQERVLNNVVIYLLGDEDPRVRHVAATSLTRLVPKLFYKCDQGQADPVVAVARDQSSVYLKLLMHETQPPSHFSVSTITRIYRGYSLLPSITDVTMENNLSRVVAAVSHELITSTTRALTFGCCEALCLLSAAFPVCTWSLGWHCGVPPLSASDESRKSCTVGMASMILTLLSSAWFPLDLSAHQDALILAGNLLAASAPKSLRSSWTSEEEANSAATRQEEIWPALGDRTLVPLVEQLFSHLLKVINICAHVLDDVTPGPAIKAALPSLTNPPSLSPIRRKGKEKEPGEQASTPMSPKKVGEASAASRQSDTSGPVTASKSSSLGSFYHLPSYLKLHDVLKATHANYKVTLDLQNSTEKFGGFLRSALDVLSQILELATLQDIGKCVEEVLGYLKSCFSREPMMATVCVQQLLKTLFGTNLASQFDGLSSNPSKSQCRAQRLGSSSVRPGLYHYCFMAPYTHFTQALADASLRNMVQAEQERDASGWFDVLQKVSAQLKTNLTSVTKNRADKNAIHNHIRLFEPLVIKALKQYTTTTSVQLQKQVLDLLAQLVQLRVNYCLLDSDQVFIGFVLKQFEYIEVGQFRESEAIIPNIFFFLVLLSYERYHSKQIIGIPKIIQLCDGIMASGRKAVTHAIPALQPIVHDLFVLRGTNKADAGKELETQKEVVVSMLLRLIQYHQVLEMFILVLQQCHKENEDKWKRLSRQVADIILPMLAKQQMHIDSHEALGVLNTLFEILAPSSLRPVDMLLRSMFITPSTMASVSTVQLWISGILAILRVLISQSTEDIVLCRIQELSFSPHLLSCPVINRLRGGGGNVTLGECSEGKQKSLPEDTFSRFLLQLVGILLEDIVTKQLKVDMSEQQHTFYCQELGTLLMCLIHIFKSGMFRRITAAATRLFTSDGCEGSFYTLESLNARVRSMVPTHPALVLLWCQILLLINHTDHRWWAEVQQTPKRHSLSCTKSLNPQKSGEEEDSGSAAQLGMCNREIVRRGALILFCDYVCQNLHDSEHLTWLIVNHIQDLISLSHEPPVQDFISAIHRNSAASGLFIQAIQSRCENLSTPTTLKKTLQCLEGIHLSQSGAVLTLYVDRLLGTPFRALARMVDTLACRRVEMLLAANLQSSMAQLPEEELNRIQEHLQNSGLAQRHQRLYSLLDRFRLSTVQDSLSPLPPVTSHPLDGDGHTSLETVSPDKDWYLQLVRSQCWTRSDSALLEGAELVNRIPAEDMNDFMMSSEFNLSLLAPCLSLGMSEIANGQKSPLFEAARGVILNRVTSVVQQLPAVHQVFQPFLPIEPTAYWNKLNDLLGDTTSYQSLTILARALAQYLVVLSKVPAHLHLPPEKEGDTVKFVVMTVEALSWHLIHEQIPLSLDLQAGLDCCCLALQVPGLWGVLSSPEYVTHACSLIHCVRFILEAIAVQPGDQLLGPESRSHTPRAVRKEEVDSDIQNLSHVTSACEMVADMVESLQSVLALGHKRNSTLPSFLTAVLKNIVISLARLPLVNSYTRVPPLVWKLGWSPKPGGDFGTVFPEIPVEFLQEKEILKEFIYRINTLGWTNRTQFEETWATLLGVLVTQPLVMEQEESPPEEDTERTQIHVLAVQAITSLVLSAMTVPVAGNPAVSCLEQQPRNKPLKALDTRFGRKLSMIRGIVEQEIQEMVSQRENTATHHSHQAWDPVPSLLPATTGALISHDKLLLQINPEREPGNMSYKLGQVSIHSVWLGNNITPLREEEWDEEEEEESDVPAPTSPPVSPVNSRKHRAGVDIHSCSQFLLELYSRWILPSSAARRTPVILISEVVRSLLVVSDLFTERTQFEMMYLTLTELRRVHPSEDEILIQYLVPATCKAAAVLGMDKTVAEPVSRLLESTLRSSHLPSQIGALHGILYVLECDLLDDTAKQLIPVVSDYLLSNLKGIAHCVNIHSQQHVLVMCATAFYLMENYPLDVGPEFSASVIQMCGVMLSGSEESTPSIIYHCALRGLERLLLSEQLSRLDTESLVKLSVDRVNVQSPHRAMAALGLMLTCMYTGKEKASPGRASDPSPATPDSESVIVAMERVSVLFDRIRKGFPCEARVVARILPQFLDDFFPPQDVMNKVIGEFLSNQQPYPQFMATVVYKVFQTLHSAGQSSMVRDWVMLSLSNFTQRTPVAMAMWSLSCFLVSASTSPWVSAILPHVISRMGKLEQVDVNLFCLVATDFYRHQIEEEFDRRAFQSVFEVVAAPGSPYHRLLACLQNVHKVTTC

Results are given in words; binding and its absence hold for the method and conditions named. Binding seen in cells or lysates may run through a third protein. Binding can be weak; no strength is given.

Regarding “mutant HTT of HdhQ150 knock-in mice (from UniProt P42859)”, the binding entry is on record as “binds”.

These data come from paper PMC3841096.
